Data on two molecules can be found in PMC6221024.

These are yes or no findings as the source states them, for the method shown. In cells and extracts the contact can be indirect. For part of these data: Binding calls can cover weak binding; strength is not graded here.

The target of assay [1] is T1, syndecan‐4 (rat (endogenous in soleus muscle)) (UniProt P34901).
T1 sequence (chain, heparan sulfate chains attached to the ectodomain): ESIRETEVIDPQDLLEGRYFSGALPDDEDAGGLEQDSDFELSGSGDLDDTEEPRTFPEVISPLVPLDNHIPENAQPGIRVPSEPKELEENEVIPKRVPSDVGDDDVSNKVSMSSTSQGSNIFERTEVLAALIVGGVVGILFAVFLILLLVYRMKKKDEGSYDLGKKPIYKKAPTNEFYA
Put plainly: co-IP; rat soleus muscle homogenates, un-injured (day 0) and 3 days after notexin injury; pre-cleared with Protein A/G beads; overnight with rabbit anti-myostatin (AB3239) or anti-SDC4 antibody, then Protein A/G; washed with 25 mM Tris, 150 mM NaCl, pH 7.2; eluted with 0.2 M glycin pH 2.5; immunoblot.

The target in assay [2] is T1, syndecan‐4 (rat (endogenous in soleus muscle)). Description: condition: only after heparinase II digestion of the immunoprecipitate (0.4 mU, 3 h, 37 °C); co-IP; injured (day 3) rat soleus homogenates; IP with goat anti-SDC4 antibody, then the immunoprecipitate digested with 0.4 mU heparinase II for 3 h at 37 °C in 50 mM HEPES pH 6.5, 50 mM NaOAc, 150 mM NaCl, 5 mM CaCl2; supernatant and eluted immunocomplex blotted.

In assay [3] the target is promyostatin (rat (endogenous in soleus muscle)) (UniProt O35312). Description: co-IP; rat soleus muscle homogenates, un-injured (day 0) and 3 days after notexin injury; pre-cleared with Protein A/G beads; overnight with rabbit anti-myostatin (AB3239) or anti-SDC4 antibody, then Protein A/G; washed with 25 mM Tris, 150 mM NaCl, pH 7.2; eluted with 0.2 M glycin pH 2.5; immunoblot. (A western blot detects proteins with antibodies after separation by electrophoresis.)

Regarding promyostatin (from UniProt O35312), the figures for the binding entry in assay [1] and in assay [2] were “binds” and “no binding”, respectively.

B1: syndecan‐4 (protein, UniProt P34901 24-202)
chain: ESIRETEVIDPQDLLEGRYFSGALPDDEDAGGLEQDSDFELSGSGDLDDTEEPRTFPEVISPLVPLDNHIPENAQPGIRVPSEPKELEENEVIPKRVPSDVGDDDVSNKVSMSSTSQGSNIFERTEVLAALIVGGVVGILFAVFLILLLVYRMKKKDEGSYDLGKKPIYKKAPTNEFYA
modifications: heparan sulfate chains attached to the ectodomain
As to B1, the binding result in assay [3] is “binds”.
